PubChem BioAssay AID624297 (National Center for Advancing Translational Sciences (NCATS), 2012)
In all, about 340,000 compounds went through this assay and about 6,200 (1.8%) were called active. The inconclusive results got no clear call from the source; some entries with a clear call stand among them for comparison. Calls come from the whole dose curve; as a rule, active = well fitted activation curve with a large enough effect; inconclusive = small, poorly fitted or top-dose-only effect; inactive = no such curve, though single readings can be large or run the other way. Potencies beside an inconclusive call are fits to weak or partial responses and may not hold up.

Assay: A quantitative high throughput screen for small molecules that induce DNA re-replication in SW480 colon adenocarcinoma cells. For re-replication activation: % of control where 0% means no effect. Note: nearly all actives have a fitted effect of over 55% in size.
Settings: Hoechst DNA content imaging, 48 h; re-replication activation: at 46.1 µM (top of the series)
Procedure, shortened: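 Image-based read-out: total Hoechst fluorescence of nuclei (405 nm excitation, 500-530 nm emission), with hits raising the fraction of high-intensity nuclei. SW480 colon cells incubated 48 hr with compounds at 37 C.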
Potency is the fitted concentration of half-maximal effect.

SMILES	Potency	re-replication activation
O=Cc1cc2ccccc2nc1SCc1ccc(Cl)c(Cl)c1	inconclusive: 1.64 µM [activator, full curve, poor fit]	–
Cc1cc(C)c(NC(=O)COC(=O)C2CCCCC2)c(C)c1	inconclusive: 0.92 µM [activator, full curve]	–
CCN1CCN(Cc2cc(=O)oc3ccc(C)cc23)CC1	–	inactive: -3.02%
COc1ccc(-n2cnnc2SCC(=O)Nc2ccc(N3CCOCC3)cc2)cc1	–	inactive: 6.17%
CCC1CN2CCc3cc(OC)c(OC)cc3C2CC1CC1c2cc(OC)c(OC)cc2CCN1C(=O)C(Cc1c[nH]c2ccccc12)NC(=O)OC(C)(C)C (configuration not stated)	inconclusive: 23.1 µM [activator, single point]	–
Cc1c(Cc2ccccc2)c(=O)oc2c(C)c(OCC(=O)N[C@@H](Cc3ccccc3)C(=O)O)ccc12	inconclusive: 0.92 µM [activator, partial curve, poor fit]	–
Cc1ccc(Nc2cc(C)nn2-c2nc(C)cc(=O)[nH]2)cc1	inconclusive: 1.41 µM [activator, partial curve, poor fit]	–
Cc1cc(OCC(=O)NC(C)(C)C)ccc1Cl	–	inactive: -2.99%
CCCn1c(=S)[nH]c2cc(OC)c(OC)cc2c1=O	inconclusive: 32.6 µM [activator, partial curve, poor fit]	–
CCN(C(=O)COC(=O)c1ccc(=O)n(Cc2ccccc2)n1)C1CCS(=O)(=O)C1 (configuration not stated)	–	inactive: -2.06%
COc1cc([C@@H]2[C@H]3CN(C)CC=C3C(C#N)=C(N)C2(C#N)C#N)cc2c1OCO2	inconclusive: 9.2 µM [activator, partial curve, poor fit]	–
CN1C2CCC1/C(=C/c1cccn1C)C(=O)/C2=C\c1cccn1C	inconclusive: 29.1 µM [activator, single point]	–
Cc1ccc(S(=O)(=O)NCCC(=O)OCC(=O)NCCc2ccccc2)cc1C	–	inactive: -1.4%
Cc1cc(C)cc(C(=O)NC(=S)Nc2ccc(Cc3ccncc3)cc2)c1	inconclusive: 29.1 µM [activator, single point]	–
N#C/C(=C/c1ccncc1)c1nc2ccccc2s1	–	inactive: 1.26%
O=C(CSc1nc2ccccc2c(=O)[nH]1)Nc1nc(-c2ccc(Br)cc2)cs1	inconclusive: 29.1 µM [activator, partial curve, poor fit]	–
CC1(C)Cc2c(sc3nc(-c4cccs4)n(N)c(=O)c23)CO1	inconclusive: 18.4 µM [activator, partial curve, poor fit]	–
Cc1nn(-c2cccc(Cl)c2)c2nc(-c3ccncc3)cc(C(=O)N3CCOCC3)c12	inconclusive: 20.6 µM [activator, single point]	–
Nc1nc2n[nH]nc2c(=O)[nH]1	inconclusive: 14.6 µM [activator, partial curve, poor fit]	–
CCCc1cc(=O)[nH]c(SCC(=O)Nc2cc(S(=O)(=O)N3CCOCC3)ccc2Cl)n1	–	inactive: 17.7%
CCOc1ccc(S(=O)(=O)NC(C)C(=O)NC2CCCC2)cc1 (configuration not stated)	inconclusive: 18.4 µM [activator, single point]	–
COc1cccc(-c2coc3cc4oc(=O)c(CCC(=O)O)c(C)c4cc23)c1	–	inactive: 1.03%
CCOCCCn1c(=O)c(NC(=O)c2ccc(OCC)cc2)c2n(c1=S)CCCCC2	–	inactive: 6.28%

SMILES	Potency	re-replication activation
COc1cccc(NC(=O)CN(C)C(=O)c2c(C)noc2C)c1	inconclusive: 29.1 µM [activator, single point]	–
COc1ccccc1OCCCc1c(C)n[nH]c1C	–	inactive: -10.5%
COc1ccc(NC(=O)c2sc3nc(N4CCOCC4)c4c(c3c2N)CCCC4)c(OC)c1	inconclusive: 2.91 µM [activator, full curve]	–
Cn1c(N)c(S(=O)(=O)c2ccc(Br)cc2)c2nc3ccccc3nc21	inconclusive: 23.1 µM [activator, single point]	–
OC(COc1ccc2c(c1)OCO2)CN1CCN(c2ccc(F)cc2)CC1 (configuration not stated)	inconclusive: 6.51 µM [activator, partial curve, poor fit]	–
CCOc1ccc(Nc2oc(-c3cccc(Cl)c3)nc2C#N)cc1	inconclusive: 18.4 µM [activator, single point]	–
Cc1c(C(=O)Oc2cccc3cccnc23)oc2ccccc12	inconclusive: 20.6 µM [activator, single point]	–
CSc1ccc(C#N)cc1NC(=O)c1ccc(Cl)cc1Cl	inconclusive: 6.51 µM [activator, single point]	–
Cc1sc(NC(=S)NC(=O)c2cccs2)nc1-c1ccc(CC(C)C)cc1	inconclusive: 15.8 µM [activator, partial curve, poor fit]	–
COCc1ccc(C(=O)N2CCCC(N3CCN(c4ccccc4C)CC3)C2)s1 (configuration not stated)	–	inactive: -23%
O=C(CCn1cnnn1)Nc1ccc(Cl)c(Cl)c1	inconclusive: 20.6 µM [activator, single point]	–
O=C(Cc1ccc(Br)cc1)Nc1ccc(Cl)cc1	inconclusive: 1.26 µM [activator, partial curve, poor fit]	–
COC(=O)c1ccc(/C=C2/SC(=S)N(CCCC(=O)Nc3ccc(O)cc3)C2=O)cc1	inconclusive: 20.6 µM [activator, single point]	–
O=C(NCCc1ccccc1)c1ccc2c(c1)OCCCO2	–	inactive: -1.96%
CN(C)CCNC(=O)c1csc(Nc2cccc3ccccc23)n1	inconclusive: 18.4 µM [activator, partial curve, poor fit]	–
CCOC(=O)c1cc(S(=O)(=O)NCC2CCN(Cc3cccc(C)c3)CC2)cn1C	inconclusive: 35.5 µM [activator, single point]	–
COc1ccccc1NC(=O)N(Cc1cccs1)Cc1cc2cc3c(cc2[nH]c1=O)OCO3	inconclusive: 20.6 µM [activator, partial curve, poor fit]	–
Cc1ccc2nc(C)c3c(c2c1)OC(C(C)(Cl)Br)C3 (configuration not stated)	–	inactive: 3.95%
S=C(NCCCN1CCN(CCCNC(=S)NC2CCCCC2)CC1)NC1CCCCC1	inconclusive: 25.9 µM [activator, single point]	–
COc1ccc(-c2ccc3oc(-c4ccc(OC)cc4)c(C#CCO)c3c2)cc1	active: 25.9 µM	–
CCCCn1cnc2c([nH]c3cc(OC)ccc32)c1=O	–	inactive: -2.81%
Cc1cc(C)c[n+](-c2nc3ccccc3nc2C(=C=[N-])C#N)c1	inconclusive: 25.9 µM [activator, single point]	–
CCN(CC)CCCNC(=O)CNC(=S)N(CCCN1CCOCC1)Cc1cccs1	–	inactive: -17.5%

SMILES	Potency	re-replication activation
CC1CN(CCN2CC(C)N(C=O)CC2C)C(C)CN1C=O (configuration not stated)	–	inactive: 1.04%
O=[N+]([O-])c1ccc(C2Oc3ccccc3C3CC(c4ccccc4)=NN32)s1 (configuration not stated)	active: 23.1 µM	–
Cc1ccccc1C=O	–	inactive: -5.69%
O=C(N/N=C/c1cn(-c2ccccc2)nc1-c1cccs1)c1ccccc1F	inconclusive: 29.1 µM [activator, partial curve, poor fit]	–
Cc1ccc(C)c(NC(=O)c2ncn[nH]2)c1	inconclusive: 18.4 µM [activator, single point]	–
O=[N+]([O-])c1ccc(O)c(/C=N/NC2=NS(=O)(=O)c3ccccc32)c1	inconclusive: 29.1 µM [activator, single point]	–
CCN(C(=O)COC(=O)c1ccccc1Nc1ccccc1)c1c(N)n(Cc2ccccc2)c(=O)[nH]c1=O	inconclusive: 18.4 µM [activator, single point]	–
CCCn1c(NC(=O)CN2C(=O)NC3(CCCCC3)C2=O)nc2ccccc21	inconclusive: 20.6 µM [activator, single point]	–
COc1cccc2sc(Nc3nc4ccc(NC(C)=O)cc4s3)nc12	inconclusive: 7.31 µM [activator, partial curve, poor fit]	–
CCN1CCN(c2ccc(S(=O)(=O)N3CCCCC3)cc2NC(=O)/C=C/c2ccc(OC(F)F)cc2)CC1	inconclusive: 18.4 µM [activator, single point]	–
O=[N+]([O-])c1c(NCCCO)cc(N2CCN(Cc3ccc4c(c3)OCO4)CC2)c2nonc12	–	inactive: -2.94%
C/C(=N\NC(=O)c1ccccc1O)C1CC1	active: 16.4 µM	–
CC(=O)c1ccc(NC(=O)COC(=O)CCC(=O)c2cccs2)cc1	inconclusive: 29.1 µM [activator, partial curve, poor fit]	–
O=C(O)c1ccc2c3c(ncnc13)-c1ccccc1C2=O	inconclusive: 25.9 µM [activator, partial curve, poor fit]	–
CC(=O)c1cccc(Nc2nc(-c3ccccc3)nc3ccccc23)c1	–	inactive: 1.33%
COc1cc(NC(=O)C/C(C)=N/NC(=O)c2cccc(O)c2)c(OC)cc1Cl	inconclusive: 16.4 µM [activator, single point]	–
CC1CCN(S(=O)(=O)c2ccc(C(=O)N3CCCC(C(F)(F)F)C3)cc2)CC1 (configuration not stated)	inconclusive: 0.231 µM [activator, full curve, poor fit]	–
COC(=O)C1=C(Nc2ccc(C)cc2)C=C(C)C(C(=O)OC)C1c1cccc(OC)c1 (configuration not stated)	active: 23.1 µM	–
O=C(NC1CCCCC1)N1CCC(c2nc(-c3ccc(S(=O)(=O)N4CCCC4)cc3)no2)CC1	inconclusive: 20.6 µM [activator, single point]	–
Cc1ccc2nc(-c3ccc(NC(=O)CCS(=O)(=O)c4ccccc4)cc3)sc2c1	inconclusive: 25.9 µM [activator, single point]	–
C/C(=N\NC(=O)c1ccc(NS(=O)(=O)c2cccs2)cc1)c1ccccn1	inconclusive: 6.51 µM [activator, single point]	–

Part of the list above, with bars between the fields:
SMILES | Potency | re-replication activation
COc1cc(NC(=O)C/C(C)=N/NC(=O)c2cccc(O)c2)c(OC)cc1Cl | inconclusive: 16.4 µM [activator, single point] | –
CC1CCN(S(=O)(=O)c2ccc(C(=O)N3CCCC(C(F)(F)F)C3)cc2)CC1 (configuration not stated) | inconclusive: 0.231 µM [activator, full curve, poor fit] | –
